tested on: Trypanosoma cruzi (Tulahuen C2C4 strain); experiment: American trypanosome protozoa growth inhibition screening test; assay type: cell-based; settings: chemotherapy index = EC50 rat L6 cells / EC50 American trypanosome protozoa
Protocol: In the present example, amastigote and trypomastigote infected with rat L6 cells of protozoa of Trypanosoma cruzi (Tulahuen C2C4 strain) were used. As medium used in the test, RPMI 1640 medium containing L6 cells was supplemented so that L-glutamine (200 mM) becomes 1%, fetal bovine serum becomes 10%, which was cultured under CO2 concentration 5%, at 37° C.
The compounds of the present invention to be used in the test and the positive target agent (benznidazole) were dissolved in DMSO to make a test solution of a predetermined concentration. A medium containing 5×10^3 protozoa was added to wells of a 96-well culture plate, and pre-cultured for 48 hours. After replacing the medium, test solution containing drug of a predetermined concentration or a drug-free DMSO was added. Test solutions were taken by duplicates. After culturing the culture plate in an incubator for 96 hours, growth inhibition activity was tested. Test was conducted as follows.
50 μL of CPRG/Nonidet was added to each well, and allowed to rest for 2 to 6 hours. Next, the culture plate was placed on a fluorescent micro-plate reader, and the absorbance was measured at 540 nm. Growth inhibition rate was calculated with the following formula based on the protozoan infection rate which was obtained by calculating trypanosome infection rate of the test solution added group and control group, to obtain a 50% growth inhibition concentration (EC50). Growth inhibition rate (%)={1−(b−a)/(c−a)}×100 a: early infection rate b: infection rate when test solution was added c: infection rate of the control

Compound | Selective toxicity
CCn1c(=Cc2oc3ccccc3[n+]2CC)sc(=CC=C2N(C)c3ccccc3C2(C)C)c1=O [A-8] | 1.8
CCn1c(=Cc2sc3c4ccccc4ccc3[n+]2CC)sc(=CC=C2SCCN2C)c1=O [A-9] | 2.0
CCn1c(=Cc2cc[n+](CC)c3ccccc23)sc(=CC=C2C=Cc3ccccc3N2C)c1=O [A-14] | 7.6
